The record followed here is the M2OR odorant receptor database.

Chains of the proteins cited; added tags and fusions are not shown. A line that says so, or that is headed by a name, gives the form on record, which may keep a tag or linker.
OR2J2, as listed by the source: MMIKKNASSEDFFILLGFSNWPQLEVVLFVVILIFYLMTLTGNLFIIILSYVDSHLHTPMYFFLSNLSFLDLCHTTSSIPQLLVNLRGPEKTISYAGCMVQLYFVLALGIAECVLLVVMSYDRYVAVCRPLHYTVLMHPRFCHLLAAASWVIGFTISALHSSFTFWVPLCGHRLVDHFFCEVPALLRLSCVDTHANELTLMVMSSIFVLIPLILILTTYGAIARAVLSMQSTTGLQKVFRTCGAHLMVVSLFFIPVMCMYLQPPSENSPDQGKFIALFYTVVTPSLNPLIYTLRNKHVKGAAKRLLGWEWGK

Conditions in all cases: stereoisomer not certain
For one assay, the system named is T1, OR2H2.
T1 sequence (whole entry): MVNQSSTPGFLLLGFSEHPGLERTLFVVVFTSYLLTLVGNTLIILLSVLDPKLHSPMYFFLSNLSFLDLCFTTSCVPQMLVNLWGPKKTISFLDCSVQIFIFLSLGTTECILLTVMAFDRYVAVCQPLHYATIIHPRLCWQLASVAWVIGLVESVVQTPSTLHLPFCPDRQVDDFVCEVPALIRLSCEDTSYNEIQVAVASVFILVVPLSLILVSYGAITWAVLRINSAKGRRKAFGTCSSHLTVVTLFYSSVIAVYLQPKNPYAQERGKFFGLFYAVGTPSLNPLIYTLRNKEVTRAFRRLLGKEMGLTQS
In outline: (§1)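 Whether a receptor–molecule pair is responsive (active) rests on the original authors' judgment that its measured signal was statistically different from baseline. Pairs without that judgment are non-responsive (inactive). Sources used varied assay methods, commonly transient luciferase assays in mammalian cell lines.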

The next assay relates to T2, OR2J1.
T2 sequence (whole entry): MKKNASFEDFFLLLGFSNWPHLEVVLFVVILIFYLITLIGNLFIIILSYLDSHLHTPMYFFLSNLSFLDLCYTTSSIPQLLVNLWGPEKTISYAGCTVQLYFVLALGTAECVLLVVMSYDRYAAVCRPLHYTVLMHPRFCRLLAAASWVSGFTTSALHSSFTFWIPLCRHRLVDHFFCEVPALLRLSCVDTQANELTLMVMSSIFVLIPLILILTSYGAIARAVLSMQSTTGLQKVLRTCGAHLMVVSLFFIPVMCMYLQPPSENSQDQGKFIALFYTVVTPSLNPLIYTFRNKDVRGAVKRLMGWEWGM
The method in brief: as §1

In another assay the target is T3, OR2J2 (Homo sapiens) (UniProt O76002).
T3 sequence (whole entry): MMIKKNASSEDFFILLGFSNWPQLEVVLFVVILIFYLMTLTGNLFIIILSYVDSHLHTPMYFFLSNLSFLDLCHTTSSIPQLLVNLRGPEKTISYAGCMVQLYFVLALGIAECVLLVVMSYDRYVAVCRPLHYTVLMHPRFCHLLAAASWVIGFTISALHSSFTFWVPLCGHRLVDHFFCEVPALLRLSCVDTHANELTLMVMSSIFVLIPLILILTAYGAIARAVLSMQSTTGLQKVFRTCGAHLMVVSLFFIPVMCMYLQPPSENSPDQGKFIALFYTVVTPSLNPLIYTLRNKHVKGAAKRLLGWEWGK
In outline:
as §1

For assay [1], the system named is T4, OR2J2.
T4 sequence (whole entry): T3 sequence (whole entry) with A218T
The method in brief:
as §1

The test system of assay [2] is T5, OR2J2.
T5 sequence (whole entry): T3 sequence (whole entry) with H74Y, A146V, A218T
The method in brief: as §1
The source holds these as a separate data set.

In assay [3] the test system is T6, OR2J2.
T6 sequence (whole entry): T3 sequence (whole entry) with H74Y, A111T, A146V
The method in brief:
as §1
The source holds these as a separate data set.

The target of a further assay is T7, OR2J3 (Homo sapiens) (UniProt O76001).
T7 sequence (whole entry): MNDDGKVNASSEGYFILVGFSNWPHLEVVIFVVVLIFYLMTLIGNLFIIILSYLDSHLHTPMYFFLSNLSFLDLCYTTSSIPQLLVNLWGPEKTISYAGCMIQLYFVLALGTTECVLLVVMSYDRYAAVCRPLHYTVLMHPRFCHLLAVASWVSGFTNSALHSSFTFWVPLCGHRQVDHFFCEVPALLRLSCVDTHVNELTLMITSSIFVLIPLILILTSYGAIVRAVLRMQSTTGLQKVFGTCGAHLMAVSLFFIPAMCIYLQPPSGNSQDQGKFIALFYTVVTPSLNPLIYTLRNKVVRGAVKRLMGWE
The method in brief:
as §1

Numbering of substitutions follows the chain as printed. The entries are a selection whose mix differs from that of the whole data set. Calls are pooled over several reports, among them a noisy single-well screen. The list shows a part of the results.
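Note: active if original authors judged signal statistically different from baseline.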

Take `C=CCSCC=C`: the “odorant receptor agonist call” value in the assay on OR2H2, with OR2J1, with OR2J2 (Homo sapiens), with OR2J2 [1], in the assay with OR2J2 [2] and in the assay on OR2J2 [3] was “inactive” each time. The “odorant receptor agonist call” value with OR2J3 (Homo sapiens) is “active”.

`CC(=O)c1ccccc1`: the “odorant receptor agonist call” value in the assay with OR2H2, in the assay with OR2J1, with OR2J2 (Homo sapiens) and in the assay with OR2J2 [1] was “inactive” in each case. In addition, the “odorant receptor agonist call” value with OR2J2 [2] and in the assay with OR2J2 [3] was “active” throughout.

Consider `CC1CCC(C(C)C)C(O)C1` (stereo not drawn), for which the “odorant receptor agonist call” value in the assay on OR2H2, with OR2J1, in the assay with OR2J2 (Homo sapiens), with OR2J2 [1], with OR2J2 [2] and in the assay with OR2J2 [3] was “inactive” each time. Also, in the assay with OR2J3 (Homo sapiens), the “odorant receptor agonist call” value was “active”.

For the compound `CCCCCCCCC=O`, in the assay with OR2J2 (Homo sapiens), the “odorant receptor agonist call” value is “inactive”.

In the case of `CC(=O)OC(C)(C)C1CC=C(C)CC1` (stereo not drawn), the “odorant receptor agonist call” value in the assay on OR2H2, with OR2J1, with OR2J2 (Homo sapiens), in the assay with OR2J2 [1], in the assay with OR2J2 [2] and in the assay on OR2J2 [3] was “inactive” throughout. In the assay with OR2J3 (Homo sapiens), the “odorant receptor agonist call” value was “inactive”.

Turning to `CCCCCC(=O)O`, the “odorant receptor agonist call” value in the assay on OR2H2, in the assay on OR2J1, in the assay with OR2J2 (Homo sapiens), in the assay on OR2J2 [1], with OR2J2 [2] and with OR2J2 [3] was “inactive” each time. For the same compound, in the assay with OR2J3 (Homo sapiens), the “odorant receptor agonist call” value was “inactive”.

As for `CC1COCc2cc3c(cc21)C(C)(C)C(C)C3(C)C` (stereo not drawn), the “odorant receptor agonist call” value with OR2H2, in the assay with OR2J2 [2] and in the assay with OR2J3 (Homo sapiens) was “inactive” each time. Moreover, the “odorant receptor agonist call” value in the assay with OR2J1, with OR2J2 (Homo sapiens), in the assay on OR2J2 [1] and in the assay on OR2J2 [3] was “active” throughout.

For the compound `CC12CCC(CC1)C(C)(C)O2`, the “odorant receptor agonist call” value with OR2H2, in the assay with OR2J1, with OR2J2 (Homo sapiens), with OR2J2 [1], in the assay with OR2J2 [2] and with OR2J2 [3] was “inactive” throughout. In addition, the “odorant receptor agonist call” value with OR2J3 (Homo sapiens) is “active”.

As to `CC(=O)C(C)=O`, the “odorant receptor agonist call” value with OR2H2, with OR2J1, in the assay with OR2J2 (Homo sapiens), in the assay with OR2J2 [1], with OR2J2 [2] and with OR2J2 [3] was “inactive” each time. In the assay with OR2J3 (Homo sapiens), the “odorant receptor agonist call” value was “active”.

On to `O=CCc1ccccc1`, for which the “odorant receptor agonist call” value in the assay on OR2H2 and in the assay on OR2J1 was “inactive” in each case. The “odorant receptor agonist call” value with OR2J2 (Homo sapiens), in the assay on OR2J2 [1], in the assay on OR2J2 [2], in the assay on OR2J2 [3] and with OR2J3 (Homo sapiens) was “active” throughout.

In the case of `CC(C)(O)CCCC1=CCC(C=O)CC1` (stereo not drawn), the “odorant receptor agonist call” value in the assay with OR2J2 (Homo sapiens) and with OR2J3 (Homo sapiens) was “inactive” throughout.

For `CC1=CCC(C(C)(C)O)CC1` (stereo not drawn), the “odorant receptor agonist call” value with OR2H2, with OR2J1, with OR2J2 (Homo sapiens), in the assay on OR2J2 [1], in the assay with OR2J2 [2] and in the assay on OR2J2 [3] was “inactive” each time. In addition, the “odorant receptor agonist call” value in the assay with OR2J3 (Homo sapiens) was “active”.

Regarding `c1ccc(Oc2ccccc2)cc1`, the “odorant receptor agonist call” value in the assay on OR2H2, with OR2J1, in the assay with OR2J2 (Homo sapiens), in the assay with OR2J2 [1], with OR2J2 [2] and in the assay with OR2J2 [3] was “inactive” throughout. The “odorant receptor agonist call” value with OR2J3 (Homo sapiens) was “active”.

As to `CCCCCOC(C)=O`, the “odorant receptor agonist call” value in the assay on OR2H2 and in the assay with OR2J2 [2] was “active” in each case. For the same compound, the “odorant receptor agonist call” value in the assay on OR2J1, with OR2J2 (Homo sapiens), in the assay on OR2J2 [1], with OR2J2 [3] and with OR2J3 (Homo sapiens) was “inactive” in each case.

On to `C=C(C)C1CCC2=CC(=O)CC(C)C2(C)C1` (stereo not drawn), for which, in the assay with OR2J3 (Homo sapiens), the “odorant receptor agonist call” value is “inactive”.

Consider `C=C(C)C1CC=C(C)C(=O)C1` (stereo not drawn), for which the “odorant receptor agonist call” value with OR2J2 (Homo sapiens) was “inactive”.

As to `O=C1CCCCCCCCCCCC(=O)OCCO1`, the “odorant receptor agonist call” value with OR2H2, in the assay with OR2J1, in the assay with OR2J2 (Homo sapiens), in the assay with OR2J2 [1], in the assay with OR2J2 [2] and in the assay on OR2J2 [3] was “inactive” in each case. Also, in the assay with OR2J3 (Homo sapiens), the “odorant receptor agonist call” value was “inactive”.

Take `CCCCO`: the “odorant receptor agonist call” value with OR2H2, with OR2J1, in the assay with OR2J2 (Homo sapiens), with OR2J2 [1], in the assay with OR2J2 [2] and in the assay with OR2J2 [3] was “inactive” in each case. Moreover, in the assay with OR2J3 (Homo sapiens), the “odorant receptor agonist call” value was “active”.

With `c1cnccn1`, the “odorant receptor agonist call” value with OR2H2, in the assay with OR2J1, with OR2J2 (Homo sapiens), with OR2J2 [1], in the assay on OR2J2 [2] and in the assay on OR2J2 [3] was “inactive” in each case. In addition, the “odorant receptor agonist call” value in the assay with OR2J3 (Homo sapiens) is “active”.

Turning to `C=CCc1ccc(OC)c(OC)c1`, the “odorant receptor agonist call” value in the assay with OR2H2, in the assay with OR2J1, in the assay with OR2J2 (Homo sapiens) and with OR2J2 [1] was “inactive” each time. The “odorant receptor agonist call” value in the assay with OR2J2 [2], in the assay with OR2J2 [3] and with OR2J3 (Homo sapiens) was “active” each time.

For the compound `CC(=O)OCC=C(C)CCC=C(C)C`, the “odorant receptor agonist call” value with OR2H2, in the assay on OR2J1, with OR2J2 (Homo sapiens), in the assay on OR2J2 [1] and in the assay with OR2J2 [2] was “inactive” in each case. The “odorant receptor agonist call” value with OR2J2 [3] and with OR2J3 (Homo sapiens) was “active” throughout.

Take `COc1cc(C)ccc1O`: the “odorant receptor agonist call” value in the assay with OR2H2, in the assay on OR2J1, with OR2J2 (Homo sapiens), with OR2J2 [1] and in the assay on OR2J2 [2] was “inactive” in each case. In addition, the “odorant receptor agonist call” value with OR2J2 [3] and in the assay with OR2J3 (Homo sapiens) was “active” in each case.

With `CC(C)CCC(=O)O`, the “odorant receptor agonist call” value with OR2H2, in the assay with OR2J1, in the assay on OR2J2 [1], in the assay with OR2J2 [2], in the assay on OR2J2 [3] and with OR2J3 (Homo sapiens) was “inactive” each time. The “odorant receptor agonist call” value with OR2J2 (Homo sapiens) is “active”.

`CC(C)C=O`: the “odorant receptor agonist call” value with OR2H2, in the assay with OR2J1, with OR2J2 (Homo sapiens), in the assay with OR2J2 [1], in the assay with OR2J2 [2] and with OR2J2 [3] was “inactive” each time. The “odorant receptor agonist call” value with OR2J3 (Homo sapiens) is “inactive”.

As for `CCCCCCC=O`, in the assay with OR2J2 (Homo sapiens), the “odorant receptor agonist call” value was “inactive”.

`CC12CCC(C1)C(C)(C)C2=O` (stereo not drawn): the “odorant receptor agonist call” value with OR2H2, with OR2J1, with OR2J2 (Homo sapiens), in the assay on OR2J2 [1], in the assay on OR2J2 [2] and in the assay on OR2J2 [3] was “inactive” in each case. Moreover, the “odorant receptor agonist call” value with OR2J3 (Homo sapiens) is “inactive”.

With `O=C1CCCCCCCCCCCCCCO1`, the “odorant receptor agonist call” value in the assay on OR2H2, with OR2J1, with OR2J2 (Homo sapiens), in the assay with OR2J2 [1], in the assay on OR2J2 [2] and in the assay with OR2J2 [3] was “inactive” in each case. Moreover, the “odorant receptor agonist call” value with OR2J3 (Homo sapiens) is “active”.

Regarding `COc1cc(C=O)ccc1O`, the “odorant receptor agonist call” value with OR2H2, in the assay on OR2J1, in the assay with OR2J2 (Homo sapiens), with OR2J2 [1] and with OR2J3 (Homo sapiens) was “inactive” in each case. The “odorant receptor agonist call” value in the assay on OR2J2 [2] and with OR2J2 [3] was “active” in each case.

For the compound `CC=Cc1ccc(O)c(OC)c1`, the “odorant receptor agonist call” value with OR2H2 and with OR2J1 was “inactive” throughout. Moreover, the “odorant receptor agonist call” value with OR2J2 (Homo sapiens), in the assay with OR2J2 [1], with OR2J2 [2], in the assay with OR2J2 [3] and in the assay with OR2J3 (Homo sapiens) was “active” throughout.
